Source: patent US6348195
Changes are numbered by the printed parent chain. Results are given in words; binding and its absence hold for the method and conditions named. Some entries that bind do so weakly or less than the wild type. For some of these results: Sequences can lack the tags named with a protein.

The chains behind the UniProt entries cited, without tags or fusion partners. Residues count along the entry.
UniProt P15328, residues 25-234: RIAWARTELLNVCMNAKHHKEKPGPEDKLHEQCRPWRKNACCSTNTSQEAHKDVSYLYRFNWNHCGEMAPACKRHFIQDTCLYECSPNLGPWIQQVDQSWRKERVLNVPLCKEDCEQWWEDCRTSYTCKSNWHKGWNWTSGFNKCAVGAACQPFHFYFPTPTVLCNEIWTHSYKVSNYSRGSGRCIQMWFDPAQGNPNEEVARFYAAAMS

B1: hybrid antibody: humanized heavy chain from KOL mutagenesis (LK26KOLHuVH) with chimeric LK26 light chain (antibody, human IgG1, V domains shown)
VH: EVQLVESGGGVVQPGRSLRLSCSASGFTFSGYGLSWVRQAPGKGLEWVAMISSGGSYTYYADSVKGRFAISRDNAKNTLFLQMDSLRPEDTGVYFCARHGDDPAWFAYWGQGTPVTVSS
VL: DIELTQSPALMAASPGEKVTITCSVSSSISSNNLHWYQQKSETSPKPWIYGTSNLASGVPLRFRGFGSGTSYSLTISSMEAEDAATYYCQQWSSYPYMYTFGGGTKLEIK
B2: LK26HuVHSLF/HuVKPW,Y (antibody, V domains shown)
VH: QVQLQESGPGLVRPSQTLSLTCTASGFTFSGYGLSWVRQPPGRGLEWVAMISSGGSYTYYADSVKGRVTMLRDTSKNSLFLRLSSVTAADTAVYYCARHGDDPAWFAYWGQGTTVTVSS
VL: DIQLTQSPSSLSASVGDRVTITCSVSSSISSNNLHWYQQKPGKAPKPWIYGTSNLASGVPSRFSGSGSGTDYTFTISSLQPEDIATYYCQQWSSYPYMYTFGQGTKVEIK
B3: LK26HuVHFAIS,N/HuVKPW,Y (antibody, V domains shown)
VH: B2 VH with V68F, T69A, M70I, L71S, T74N, S78Q, L79F, F80S, T113S, T114L
VL: B2 VL
B4: LK26KOLHuVH/HuVKPW,Y (antibody, V domains shown)
VH: B1 VH
VL: B2 VL

Legend:
[1] = target: LK26 antigen (human LK26 cancer antigen), on SW620 target cells (human) (UniProt P15328); experiment: binding to SW620 target cells (cell ELISA), compared with the chimeric antibody
[2] = target: LK26 antigen (human LK26 cancer antigen), on SW620 target cells (human) (UniProt P15328); experiment: ELISA on SW620 target cells

Binder | binding [1] | binding [2]
B1 | binds | –
B2 | – | binds
B3 | – | binds
B4 | – | binds
